Measurements reported in patent US12351591B2, “KRas inhibitors” (ELI LILLY AND COMPANY, priority 2022, dated 2025).
Some results were stated once for a whole list of compounds, not compound by compound.

By UniProt entry, the sequences of proteins in these tests, tags left out. Residues count along the entry.
UniProt P01116, 1-188 isoform P01116-2 G12D: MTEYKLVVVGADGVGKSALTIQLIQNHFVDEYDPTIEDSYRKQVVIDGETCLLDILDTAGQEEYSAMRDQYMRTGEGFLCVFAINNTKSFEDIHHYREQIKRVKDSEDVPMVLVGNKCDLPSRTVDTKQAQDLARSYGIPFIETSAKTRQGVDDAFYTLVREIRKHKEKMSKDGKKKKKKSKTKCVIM

The compounds below were run against T1, KRas G12D (Homo sapiens, UniProt P01116, G12D) (assay: PANC-1 Cellular Active RAS GTPase ELISA (KRas G12D Mutation)). Details: PANC-1 cells, 2 hours; read-out: relative IC50, inhibition of constitutive RAS GTPase activity (KRas G12D mutant).
T1 construct: host or cells: PANC-1
Assay type: cell-based
In the case of `C[C@@H](O)CN1CC2CCC(C1)N2c1nc(OC[C@@H]2C[C@@H](F)CN2C)nc2c(F)c(-c3c(F)ccc4sc(N)c(C#N)c34)c3c(c12)COC3` (single isomer, unassigned) [Example 178], the IC50 is reported as < 0.1 µM. For `C[C@@H](O)CN1CC2CCC(C1)N2c1nc(O[C@@H](C)CN2CCOCC2)nc2c(F)c(-c3ncc(F)c4sc(N)c(C#N)c34)c3c(c12)COC3` [Example 356, 2-Amino-7-fluoro-4-[5-fluoro-1-[3-[(2R)-2-hydroxypropyl]-3,8-diazabicyclo[3.2.1]octan-8-yl]-3-[(1S)-1-methyl-2-morpholino-ethoxy]-7,9-dihydrofuro[3,4-f]quinazolin-6-yl]thieno[3,2-c]pyridine-3-carbonitrile], the IC50 was < 0.1 µM. `C[C@@H](O)CN1CC2CCC(C1)N2c1nc(OC[C@@H]2CCN2CCO)nc2c(F)c(-c3c(F)ccc4sc(N)c(C#N)c34)c3c(c12)COC3` (single isomer, unassigned) [Example 180] was tested, and the IC50 was < 0.1 µM. In the case of `CCN1CC2CCC(C1)N2c1nc(OC[C@@]23CCCN2C[C@H](F)C3)nc2c(F)c(-c3ncc(F)c4sc(N)c(C#N)c34)c3c(c12)COC3` [Example 127, 2-Amino-4-[1-(3-ethyl-3,8-diazabicyclo[3.2.1]octan-8-yl)-5-fluoro-3-[[(2R,8S)-2-fluoro-1,2,3,5,6,7-hexahydropyrrolizin-8-yl]methoxy]-7,9-dihydrofuro[3,4-f]quinazolin-6-yl]-7-fluoro-thieno[3,2-c]pyridine-3-carbonitrile], the IC50 is reported as < 0.1 µM. `CN1CCC[C@H]1COc1ncc2c3c(c(-c4ccc(F)c5sc(N)c(C#N)c45)c(Cl)c2n1)COC3` (single isomer, unassigned; isomer 1) [Example 207] was tested, and the IC50 was < 0.1 µM. For `COc1nc(N2C3CCC2CN(C[C@H](C)O)C3)c2c3c(c(-c4cccc5sc(N)c(C#N)c45)c(F)c2n1)COC3` [Example 57, 2-Amino-4-[5-fluoro-1-[3-[(2S)-2-hydroxypropyl]-3,8-diazabicyclo[3.2.1]octan-8-yl]-3-methoxy-7,9-dihydrofuro[3,4-f]quinazolin-6-yl]benzothiophene-3-carbonitrile], the IC50 was < 0.1 µM. In the case of `CC(C)C(=O)O[C@H](C)CN1CC2CCC(C1)N2c1nc(OC[C@@]23CCCN2C[C@H](F)C3)nc2c(F)c(-c3ncc(F)c4sc(N)c(C#N)c34)c3c(c12)COC3` [Example 221, [(1R)-2-[8-[6-(2-Amino-3-cyano-7-fluoro-thieno[3,2-c]pyridin-4-yl)-5-fluoro-3-[[(2R,8S)-2-fluoro-1,2,3,5,6,7-hexahydropyrrolizin-8-yl]methoxy]-7,9-dihydrofuro[3,4-f]quinazolin-1-yl]-3,8-diazabicyclo[3.2.1]octan-3-yl]-1-methyl-ethyl] 2-methylpropanoate], the IC50 is reported as < 0.1 µM. With `N#Cc1c(N)sc2ccc(F)c(-c3c4c(c5c(N6C7CCC6CN(CCCO)C7)nc(OCCN6CCOCC6)nc5c3F)COC4)c12` (single isomer, unassigned) [Example 146, 2-Amino-5-fluoro-4-[5-fluoro-1-[3-(3-hydroxypropyl)-3,8-diazabicyclo[3.2.1]octan-8-yl]-3-(2-morpholinoethoxy)-7,9-dihydrofuro[3,4-f]quinazolin-6-yl]benzothiophene-3-carbonitrile] the IC50 was < 0.1 µM. With `N#Cc1c(N)sc2ccc(F)c(-c3c4c(c5c(N6C7CCC6CN(Cc6cn(CCO)cn6)C7)nc(OC[C@@]67CCCN6C[C@H](F)C7)nc5c3F)COC4)c12` [Example 111, 2-Amino-5-fluoro-4-[5-fluoro-3-[[(2R,8S)-2-fluoro-1,2,3,5,6,7-hexahydropyrrolizin-8-yl]methoxy]-1-[3-[[1-(2-hydroxyethyl)imidazol-4-yl]methyl]-3,8-diazabicyclo[3.2.1]octan-8-yl]-7,9-dihydrofuro[3,4-f]quinazolin-6-yl]benzothiophene-3-carbonitrile] the IC50 was < 0.1 µM.
